Assay results: paper PMC7703681 (Journal of medicinal chemistry, 2020)

Details: male, Sprague Dawley, rat, in vivo, po

Structure (SMILES): C[C@](O)(Cn1cc(F)cn1)C(=O)Nc1cnc(C#N)c(C(F)(F)F)c1 [21a, (S)-N-(6-Cyano-5-(trifluoromethyl)pyridin-3-yl)-3-(4-fluoro-1H-pyrazol-1-yl)-2-hydroxy-2-methylpropanamide]
- blood level at 24 h in concentration versus time plot: vast majority of 21a eliminated by 24 h
